Results are given in words; binding and its absence hold for the method and conditions named. Some entries that bind do so weakly or less than the wild type.
T1: VISTA (antigen of the hybridoma screening ELISA) (UniProt Q9H7M9)
T1 sequence (looked up): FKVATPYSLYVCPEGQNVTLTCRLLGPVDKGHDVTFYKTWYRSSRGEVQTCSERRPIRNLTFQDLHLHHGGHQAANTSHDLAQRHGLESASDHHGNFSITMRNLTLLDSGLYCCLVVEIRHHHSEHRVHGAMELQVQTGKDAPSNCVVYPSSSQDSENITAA


Target: T1, VISTA (antigen of the hybridoma screening ELISA)
Test: ELISA binding assay, hybridoma screen

binding	Binder
binds	rabbit anti-VISTA antibody clone 34C3 (antibody, V domains shown) VH: QSVEESGGRLVTPGTPLTLTCTVSGFSLSSHAMSWVRQAPGKGLEWIGIIWTGGNTYYANWAKGRFTISKTSTTVDLKITSPIMEDTATYFCARYLNVEIGDVWGPGTLVTVSS VL: QVLTQTPSSVSAAVGGTVTISCQSSQSVYKNNYLAWFQQKPGQPPKGLIYGASSLASGVSSRFKGSGSGTQFTLTISDVQCVDAATYYCQGCYYTAGSGDNYAFGGGTEVVVR
binds	rabbit anti-VISTA antibody clone 18D3 (antibody, V domains shown) VH: QSVEESGGRLVTPGTPLTLACTVSGIDLSTNVMSWVRQAPGKGLEWIGIIFDSDITYYANWAKGRFTISKTSTTVDLKFTSPTTEDTATYFCARYDTYGYSYSIDLWGPGTLVTVSS VL: AYDMTQTPASAEVAVGGTVTINCQASEDIYNLLAWYQQKPGQRPKLLIYRASTLASGVSSRFKGSGSGTDYTLTISGVQCDDAATYYCQQGHSSRNVDNAFGGGTEVVVK
binds	rabbit anti-VISTA antibody clone 29G7 (hybridoma) (antibody, V domains shown) VH: QSLEESGGRLVTPGTPLTLTCTASGFSLSSYAMGWVRQAPGKGLEWIGIIIVSGNIYYASWAKGQFTISKTSTTVDLKITSPTTEDTATYFCARGDGYTYGLWGQGTLVTVSS VL: DIVMTQTPASVEAAVGGTVTIKCQASQSVYSRYLAWFQQKPGQPPKLLIYSASTLASGVSSRFKGSGSGTEYTLTISGVQCDDAATYYCQGTFYIPDYIDGFGGGTEVVVK
binds	rabbit anti-VISTA antibody clone 32B7 (antibody, V domains shown) VH: QSVEESGGRLVTPGTPLTLTCTVSGFSLSSANMGWVRQAPGEGLEYIGLIDTDGTTYYASWAKGRFTISRTSTTVDLKMTSLTTEDTATYFCARLRTGYGDLWGPGTLVAVSS VL: QAVVTQTPSSVSAAVGGTVTISCQSSQSVYNNNFLSWYQQKPGQPPKLLIYRASNLETGVSSRFSGSGSGTQFTLTISGVQCDDAATYYCAGYYSSGWYYTFGGGTEVVVK
binds	rabbit anti-VISTA antibody clone 19B5 (antibody, V domains shown) VH: QSVEESGGRLVTPGTPLTLTCTVSGFSLSSYWMSWVRQAPGEGLEWIGTIYTDGHTYYAKWAKGRFTISKTSTTVDLKMTSLTTADTATYFCARPWGVWGPGTLVTVSL VL: QVLTQTPSPVSAAVGGTVTISCQSSESVYSNNRLSWFQQKPGQPPKLLIYQASKLASGVPSRFSGSGSGTQFTLTISGVQCDDAATYYCLGGYDCSSADCDTFGGGTEVVVR
binds	rabbit anti-VISTA antibody clone 14F1 (hybridoma) (antibody, V domains shown) VH: QSLEESGGDLVKPGASLKLTCTASGFSFSSSYYMCWVRQAPGKGLEWVACFYAGFSGSTYYASWAKGRFTISKTSSTTVTLQMTSLTAADTATYFCAKGASTYGYTGYDYAGDYFILWGPGTLVTVSS VL: ALVMTQTPSSVSAAVGGTVTINCQASQNIYSNLAWYQQKPGQRPKLLIYAASNLASGVSSRFKGSGSGTEYTLTISDLECDDAATYYCQSAYYSSSADSYNAFGGGTEVVVK
binds	rabbit anti-VISTA antibody clone 41A11 (hybridoma) (antibody, V domains shown) VH: QSLEESGGDLVKPGASLKLTCTASGFSFSSSYYMCWVRQAPGKGLEWIGCFYAGFSGGTYYASWAKGRFTISKTSSTTVTLQMTGLTAADTATYFCAKGANTYGYTGYDYAGDYFTLWGPGTLVTVSS VL: ALVMTQTPSSVSAVVRGTVTINCQASQNIGSNLAWYQQKPGQRPKLLVYAASNLESGVPSRFKGSGSGTEFTLTISDLECDDAATYYCQSAYYSSVDSYNTFGGGTEVVVK

The next lines start with the binder.

Binder	binding
rabbit anti-VISTA antibody clone 14D8 (hybridoma) (antibody, V domains shown) VH: QEQLEESGGGLVKPEGSLTLTCKASGFDLSSAYYMCWVRQAPGKGLEWIGCIATGSGSTYYASWAKGRFTISKTSSTTVTLQATSLTAADTATLFCARAPYYSYDGYDYALNLWGPGTLVTVSS VL: IKMTQTPSSVSAVVGGTVTINCQASEDIVTYLAWYQQKPGHSPNLLIYAASTLASGVPSRFKGSGSGTQFTLTISDVQCDDAATYYCQQTYNYADTDNAFGGGTEVVVK	binds
rabbit anti-VISTA antibody clone 1H1 (VH) / 1L2 (VL) (antibody, V domains shown) VH: QEQLVESGGGLVQPGGSLKLSCKASGFGFSSYGVSWVRQDPGKGLEWIGYIDPVLGSAAYATWVNGRFTISSHNAQNTLYLQLNSLTAADTATYFCARAGYPGYGYATNFNLWGPGTLVTVSS VL: ALVMTQTPSSVSAAVGGTVTINCQASQNIYSNLAWYQQKPGQRPKLLIYGASNLESGVPSRFKGSGSGIEYTLTISDLECDDAATYYCQTNYYSHSAPFGGGTEVVVK	binds
rabbit anti-VISTA antibody clone 1H4 (VH) / 1L2 (VL) (antibody, V domains shown) VH: QEQLVESGGGLVQPGGSLKLSCKAPGFDFSSYGVSWVRQDPGKGLEWIGYIDPVLGSAAYATWVNGRFTISSHNAQNTLYLQLNSLTAADTATYFCARAGYPGYGYATNFNLWGPGTLVTVSS VL: ALVMTQTPSSVSAAVGGTVTINCQASQNIYSNLAWYQQKPGQRPKLLIYGASNLESGVPSRFKGSGSGIEYTLTISDLECDDAATYYCQTNYYSHSAPFGGGTEVVVK	binds
rabbit anti-VISTA antibody clone 2H2 (VH) / 2L3 (VL) (antibody, V domains shown) VH: QSVEESGGRLVTPGTPLTLTCTASGFSLSDYAMTWVRQAPGKGLEYIGIISAGGYTYYASWATGRFTISKTSTTVDLKIPSPTAEDAATYFCARVGYADSSDIYKGFYLWGPGTLVTVSS VL: DVVMTQTPASVSEPVGGTVTIKCQASESISNYLAWYQQKPGQPPKLLIYLASTLASGVPSRFEGSRSGTEFTLTISDLECADAATYYCHCTDSIINYNFGGGTEVVVK	binds
rabbit anti-VISTA antibody clone 2H4 (VH) / 2L3 (VL) (antibody, V domains shown) V domain 1: QSVEESGGRLVTPGTPLTLTCTASGFSLSDYAMTWVRQAPGKGLEYIGIISAGGYTYYASWATGRFTISKTSTTVDLKIPSPTAEDAATYFCARVGYADSSDIYKGFYLWGPGTLATVSS V domain 2: DVVMTQTPASVSEPVGGTVTIKCQASESISNYLAWYQQKPGQPPKLLIYLASTLASGVPSRFEGSRSGTEFTLTISDLECADAATYYCHCTDSIINYNFGGGTEVVVK	binds
rabbit anti-VISTA antibody clone 9A3 (antibody, V domains shown) VH: QSVEESGGRLVTPGTPLTLTCTASGFSLSDYAMTWVRQAPGKGLEYIGIISAGGYTYYASWATGRFTISKTSTTVDLKIPSPTAEDAATYFCARVGYADSSDIYKGFYLWGPGTLVTVSS VL: DVVMTQTPASVSEPVGGTVTIKCQASESISNYLAWYQQKPGQPPKLLIYLASTLASGVPSRFEGSRSGTEFTLTISDLECADAATYYCHCTDSIINYNFGGGTEVVVK	binds
rabbit anti-VISTA antibody clone 3H1 (VH) / 3L1 (VL) (antibody, V domains shown) VH: QSLEESGGRLVTPGTPLTLTCTASGFFLNNYYMSWVRQAPGKGLEWIGLIYTSGSTLYANWAKGRFTISRTSTTVDLKITSPTTEDTATYFCARYDNNVDSWLDLWGQGTLVTVSS VL: AYDMTQTPASVEVAVGGTVTIKCQASQSISSSYLAWYQQKPGQPPKLLIYVTSTLASGVSSRFKGSGSGTQFTLTISGVECADAATYYCQQGYSVSNIDNVFGGGTEVVVK	binds
rabbit anti-VISTA antibody clone 3H2 (VH) / 3L1 (VL) (antibody, V domains shown) VH: QSLEESGGHLVTPGTPPTLTCTASGFFLNNYYMSWVRQAPGKGLEWIGLIYTSGSTLYANWAKGRFTISRTSTTVDLKITSPTTEDTATYFCARYDNNVDSWLDLWGQGTLVTVSS VL: AYDMTQTPASVEVAVGGTVTIKCQASQSISSSYLAWYQQKPGQPPKLLIYVTSTLASGVSSRFKGSGSGTQFTLTISGVECADAATYYCQQGYSVSNIDNVFGGGTEVVVK	binds
rabbit anti-VISTA antibody clone 3A5 (hybridoma) (antibody, V domains shown) VH: LEQSGGGAEGGLVKPGGSLDLCCKASGFSLSSENWICWVRQAPGKGLEWIGCICGANGGSAYHANWVNGRFTLSRDIDQSTDCLHLNSLTASDTAMYYCARAAGVSNAYYFDLWGPGTLVTVSS VL: DVVMTQTPSSVSAAVGGTVTIKCQASQYIYINLAWYQQKPGQRPKLLIYDASDLASGVPSRFKGSRSGTEFTLTISDLECADAATYYCQCTYGGSTYGNAFGGGTEVVVK	binds
rabbit anti-VISTA antibody clone 2D12 (hybridoma) (antibody, V domains shown) VH: LSLEESGGRLVTPGTPLTLTCTVSGIDLSSYAMGWVRQAPGKGLEYIGIISSSGSAFYASWAKGRFTISKTSSTTVDLKMTSPTTEDTATYFCARHYAGYTTPYYFNFWGPGTLVTVSS VL: AYDMTQTPASVEVTVGGTVTIKCQASENIYSNLAWYQQKPGQPPKVLIYAASDLASGVPSRFKGSGSGTEYTLTISGVECADAATYYCQQGFSSSNVDNAFGGGTEVVVK	binds
rabbit anti-VISTA antibody clone 3A9 (antibody, V domains shown) VH: QSVEESGGRLVTPGTTLTLTCTVSGFSLSLYYMSWVRQAPGKGLEWIGMTYTGGSAYYASWAKGRFTISQTSTTVDLKMTTLTVADTATYFCVRGYLADYYGDRDNLWGPGTLVTVSS VL: IVMTQTPSSKSVPVGDTVTINCQASESVFSDDRLAWYQQKPGQPPKLLIYRASNLASGVPSRFSGSGSGTQFTLTINDVVCDDAATYYCAGYKGDSTDGVAFGGGTEVVVK	binds
rabbit anti-VISTA antibody clone 5C12 (antibody, V domains shown) VH: QSVEESGGRLVAPGTPLTLTCAVSGFSLSSYDMSWVRQAPGKGLEYIGVIGTGSTGPYYTSWAKGRFTISKTSTTVDLKITSPTTEDTATYFCARGWVKLDLWGPGTPVTVSS VL: QVLTQTPSPVSAAVGGTVTINCHSSQSVYNDNYLSWFQQKPGQPPKLLIYQASNLASGVPSRFKGSGSGTPFTLTIYDLECGDAATYYCAGGYNIGDSYSAFGGGTEVVVQ	binds
rabbit anti-VISTA antibody clone 5H2 (VH) / 5L3 (VL) (antibody, V domains shown) VH: QSLEESGGRLVTPGTPLTLTCTVSGIDLSSYAMAWVRQAPGEGLEWIGTISSSGHTYYPTWVKGRFTISKPSSTTVDLRMTSPTTEDTATYFCARGHYGYFGTVFALWGPGTLVTVSS VL: DIVMTQTPSSVSAAVGGTVTINCQASESIQTYLAWYQQKPGQPPKLLIYDASDLASGVPSRFSGSGSGKQFTLTISGVQCDDAATYYCQNYYFSTNSNYGDVFGGGTEMVVK	binds
rabbit anti-VISTA antibody clone 10D4 (antibody, V domains shown) VH: QSVEESGGRLVTPGTPLTLTCTVSGFSLISYWMIWVRQAPGEGLEWIGFINTGGSAYYASWAKGRFTISRTSTTVDLKMTSLTTEDTATYFCARARYDSYITGDLWGPGTLVTVSS VL: AVLTQTPSPVSAAVGGTVSISCQSSKSVSDNNWLSWYQQKPGQRPKLLIFYASTLASGVPSRFKGSGSGTQFTLTISDVQCDDAATYYCAGAYTNYNDNAFGGGTEVVVK	binds
